Laboratory results taken from PMC12833555.
Results are given in words; binding and its absence hold for the method and conditions named. In cells and extracts the contact can be indirect. Some binding calls cover weakened binding; strength is not graded here. Where a sequence is shown, tags or fusion partners need not be part of it.

T1: GFP-S-tag-CCDC6 (WT) (UniProt Q16204)
T1 sequence: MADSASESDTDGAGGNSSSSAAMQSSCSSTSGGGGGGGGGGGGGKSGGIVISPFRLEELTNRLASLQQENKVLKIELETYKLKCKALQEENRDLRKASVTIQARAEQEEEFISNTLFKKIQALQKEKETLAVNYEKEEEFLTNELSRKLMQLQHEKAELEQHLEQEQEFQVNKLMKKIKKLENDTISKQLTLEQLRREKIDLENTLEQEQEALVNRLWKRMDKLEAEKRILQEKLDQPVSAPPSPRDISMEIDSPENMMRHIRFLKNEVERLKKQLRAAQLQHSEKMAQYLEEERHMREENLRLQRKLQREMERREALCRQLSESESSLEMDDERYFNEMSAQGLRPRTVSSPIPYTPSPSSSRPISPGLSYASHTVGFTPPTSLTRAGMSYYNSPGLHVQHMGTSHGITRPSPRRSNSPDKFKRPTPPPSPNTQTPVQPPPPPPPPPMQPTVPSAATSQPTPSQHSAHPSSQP

B1: myc-tagged CCDC6 mutant L217P (protein, UniProt Q16204 1-474)
chain: MADSASESDTDGAGGNSSSSAAMQSSCSSTSGGGGGGGGGGGGGKSGGIVISPFRLEELTNRLASLQQENKVLKIELETYKLKCKALQEENRDLRKASVTIQARAEQEEEFISNTLFKKIQALQKEKETLAVNYEKEEEFLTNELSRKLMQLQHEKAELEQHLEQEQEFQVNKLMKKIKKLENDTISKQLTLEQLRREKIDLENTLEQEQEALVNRPWKRMDKLEAEKRILQEKLDQPVSAPPSPRDISMEIDSPENMMRHIRFLKNEVERLKKQLRAAQLQHSEKMAQYLEEERHMREENLRLQRKLQREMERREALCRQLSESESSLEMDDERYFNEMSAQGLRPRTVSSPIPYTPSPSSSRPISPGLSYASHTVGFTPPTSLTRAGMSYYNSPGLHVQHMGTSHGITRPSPRRSNSPDKFKRPTPPPSPNTQTPVQPPPPPPPPPMQPTVPSAATSQPTPSQHSAHPSSQP
B2: myc-tagged CCDC6 mutant P442S (protein, UniProt Q16204 1-474)
chain: MADSASESDTDGAGGNSSSSAAMQSSCSSTSGGGGGGGGGGGGGKSGGIVISPFRLEELTNRLASLQQENKVLKIELETYKLKCKALQEENRDLRKASVTIQARAEQEEEFISNTLFKKIQALQKEKETLAVNYEKEEEFLTNELSRKLMQLQHEKAELEQHLEQEQEFQVNKLMKKIKKLENDTISKQLTLEQLRREKIDLENTLEQEQEALVNRLWKRMDKLEAEKRILQEKLDQPVSAPPSPRDISMEIDSPENMMRHIRFLKNEVERLKKQLRAAQLQHSEKMAQYLEEERHMREENLRLQRKLQREMERREALCRQLSESESSLEMDDERYFNEMSAQGLRPRTVSSPIPYTPSPSSSRPISPGLSYASHTVGFTPPTSLTRAGMSYYNSPGLHVQHMGTSHGITRPSPRRSNSPDKFKRPTPPPSPNTQTPVQPPSPPPPPPMQPTVPSAATSQPTPSQHSAHPSSQP
B3: myc-tagged CCDC6 mutant A226S (protein, UniProt Q16204 1-474)
chain: MADSASESDTDGAGGNSSSSAAMQSSCSSTSGGGGGGGGGGGGGKSGGIVISPFRLEELTNRLASLQQENKVLKIELETYKLKCKALQEENRDLRKASVTIQARAEQEEEFISNTLFKKIQALQKEKETLAVNYEKEEEFLTNELSRKLMQLQHEKAELEQHLEQEQEFQVNKLMKKIKKLENDTISKQLTLEQLRREKIDLENTLEQEQEALVNRLWKRMDKLESEKRILQEKLDQPVSAPPSPRDISMEIDSPENMMRHIRFLKNEVERLKKQLRAAQLQHSEKMAQYLEEERHMREENLRLQRKLQREMERREALCRQLSESESSLEMDDERYFNEMSAQGLRPRTVSSPIPYTPSPSSSRPISPGLSYASHTVGFTPPTSLTRAGMSYYNSPGLHVQHMGTSHGITRPSPRRSNSPDKFKRPTPPPSPNTQTPVQPPPPPPPPPMQPTVPSAATSQPTPSQHSAHPSSQP

Biological target: T1, GFP-S-tag-CCDC6 (WT)
Assay: pull-down; S-tag pull-down with S-protein agarose resin from HeLa-Kyoto GFP-S-tag-CCDC6 cells (and HeLa-Kyoto control cells) transfected with myc-tagged CCDC6 mutants or empty vector; isolated proteins immunoblotted with anti-myc and anti-GFP

binding, binds:
B1
B2
B3
